Laboratory results reported in patent publication US20160046678A1 (ZYNGENIA, published 2016).
Results are given in words; binding and its absence hold for the method and conditions named. Some binding calls cover weakened binding; strength is not graded here.

Chains of the proteins cited; added tags and fusions are not shown. Residues count along the entry.
UniProt Q16552, residues 24-155: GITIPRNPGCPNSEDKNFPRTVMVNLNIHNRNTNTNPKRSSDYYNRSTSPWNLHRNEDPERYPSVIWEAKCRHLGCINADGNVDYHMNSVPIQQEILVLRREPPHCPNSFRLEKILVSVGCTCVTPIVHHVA

These binders were tested against T1, Angiopoietin-2 (Ang2) (human, UniProt O15123 19-496, biotin label in Examples 22-24) (assay: Example 48, method not detailed).
T1 construct: also called rhAng2; recombinant Ang2
T1 sequence (looked up): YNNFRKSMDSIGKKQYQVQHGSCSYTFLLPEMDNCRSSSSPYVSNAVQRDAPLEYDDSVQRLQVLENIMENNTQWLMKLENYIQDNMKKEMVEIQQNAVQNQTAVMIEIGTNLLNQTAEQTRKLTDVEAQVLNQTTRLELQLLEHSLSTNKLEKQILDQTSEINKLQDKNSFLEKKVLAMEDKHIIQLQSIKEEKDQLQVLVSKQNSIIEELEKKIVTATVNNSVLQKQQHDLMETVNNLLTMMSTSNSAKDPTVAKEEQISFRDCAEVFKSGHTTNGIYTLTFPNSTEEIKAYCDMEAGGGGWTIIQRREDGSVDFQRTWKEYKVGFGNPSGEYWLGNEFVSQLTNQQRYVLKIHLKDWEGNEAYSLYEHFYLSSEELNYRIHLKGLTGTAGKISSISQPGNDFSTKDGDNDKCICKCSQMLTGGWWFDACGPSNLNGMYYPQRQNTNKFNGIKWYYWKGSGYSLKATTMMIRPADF
For VPIDCYFYPNPPECYLHN [ANG126], the binding was “binds”.
For VVVEFWECYVYPNPPHCY [ANG129], the binding was “binds”.
For LHVDCYFYPNPPHCYIDE [ANG156], the binding was “binds”.
For QDHDCYFYPNPPHCYLEG [ANG157], the binding was “binds”.
VPWDCYFYPNPPHCYEDA [ANG163] was tested, and the binding was “binds”.
LLWECYFYPNPSHCYTDR [ANG179] was tested, and the binding was “binds”.
KSVSMKTCQDYPGWRYCQ [ANG303] was tested, and the binding was “binds”.
With VNVFLKTCQDYPGWRYCH [ANG335] the binding was “binds”.
With KCPLLPDWASCR [ANG599] the binding was “binds”.

The binders below were run against T1, Angiopoietin-2 (Ang2) (assay: phage ELISA on coated protein, anti-M13 detection).
For DCFWYPNPEWCY [ANG100], the binding was “binds”.
In the case of VPIDCYFYPNPPECYLHN [ANG126], the binding is reported as “binds”.
For VVVEFWECYVYPNPPHCY [ANG129], the binding was “binds”.
LHVDCYFYPNPPHCYIDE [ANG156] was tested, and the binding was “binds”.
In the case of QDHDCYFYPNPPHCYLEG [ANG157], the binding is reported as “binds”.
VPWDCYFYPNPPHCYEDA [ANG163] was tested, and the binding was “binds”.
In the case of LLWECYFYPNPSHCYTDR [ANG179], the binding is reported as “binds”.
With LWDDCYFFPNPPHCYNSP [ANG200] the binding was “binds”.
KSVSMKTCQDYPGWRYCQ [ANG303] was tested, and the binding was “binds”.
For PHEECYFYPNPPHCYTMS [ANG318], the binding was “binds”.
With VNVFLKTCQDYPGWRYCH [ANG335] the binding was “binds”.
In the case of KCPLLPDWASCR [ANG599], the binding is reported as “binds”.

These binders were tested against IL17a (UniProt Q16552) (assay: peptide selection, Example 48).
In the case of LGLWCWMFPIDSFCYPAV [ILA19], the binding is reported as “binds”.
In the case of LHLWCWMFPLDDACADFF [ILA23], the binding is reported as “binds”.
LDLWCWFPNDDWCMTHL [ILA24] was tested, and the binding was “binds”.
MVLDCYIIEELDEYWCDWYS [ILA25] was tested, and the binding was “binds”.
In the case of LGLWCWMFPIDSFCYPAI [ILA26], the binding is reported as “binds”.
With YDVWCFFFPDEIMCNETQ [ILA27] the binding was “binds”.
With VEIDCEYDWMNEYLYCAPRV [ILA28] the binding was “binds”.
KCNFNPWKAACG [ILA29] was tested, and the binding was “binds”.
With DWLHCEIKPPFYHCWNMT [ILA30] the binding was “binds”.
With LSLWCWINDVNCSEPV [ILA31] the binding was “binds”.
For LSLWCFIDETSEQCSILS [ILA33], the binding was “binds”.
MDLSCWMTDPTLEWWFCEYRP [ILA34] was tested, and the binding was “binds”.
In the case of LNLWCWMFPAAAECEFDQ [ILA35], the binding is reported as “binds”.
In the case of WCFGCVIPPFWYECMCPT [ILA36], the binding is reported as “binds”.
With LTLWCWIFPQDEICWTML [ILA37] the binding was “binds”.
For IFFDCTFSDWQLDCVELD [ILA38], the binding was “binds”.
For LALWCWMFPMSDECPPKH [ILA39], the binding was “binds”.
GHIGCWGPEWYCHWYG [ILA40] was tested, and the binding was “binds”.
With VDELCVFMFGQSDCRNLF [ILA43] the binding was “binds”.
LSLWCWAFPSDTVCLARL [ILA44] was tested, and the binding was “binds”.
For STWECWEVNNETYECARLL [ILA45], the binding was “binds”.
SNPWCHIAEYELWCWMGH [ILA46] was tested, and the binding was “binds”.
TSWECHETGDDYFYCWHLK [ILA47] was tested, and the binding was “binds”.
For LDLVCWMYPTEKACWSMR [ILA48], the binding was “binds”.
For LGLWCWMFPWEQVCSVRL [ILA50], the binding was “binds”.
TWYLCWESQWWDVYYCEEEG [ILA51] was tested, and the binding was “binds”.
In the case of MSLWCWMFPWDNMCFKFS [ILA52], the binding is reported as “binds”.
In the case of IRDDCQENWQSELVCFLLG [ILA53], the binding is reported as “binds”.
LGLWCWMFPMDPDCHRGY [ILA55] was tested, and the binding was “binds”.
For LAYECWVLEDLEYVICEQGM [ILA56], the binding was “binds”.
LFFICYETPEEYMYCLPKG [ILA57] was tested, and the binding was “binds”.
In the case of QSPWCFMFPQEEHCNHYN [ILA58], the binding is reported as “binds”.
For LSLWCWIFPTEETCKHGL [ILA59], the binding was “binds”.
In the case of HSAWCWFPEDNICLDRR [ILA61], the binding is reported as “binds”.
In the case of LTMWCEEMIKDEWWCVPAI [ILA62], the binding is reported as “binds”.
For NALWCWFPEASECGLME [ILA63], the binding was “binds”.
With YTYYCVETEYNMVCELDY [ILA64] the binding was “binds”.
In the case of IGWQCEYLPWDECQWQF [ILA65], the binding is reported as “binds”.
DDLFCWMFPSAYVCLPPV [ILA66] was tested, and the binding was “binds”.
In the case of QDELCNFIFNDHCASAF [ILA67], the binding is reported as “binds”.
LQELCHYLGFEECVGQQ [ILA68] was tested, and the binding was “binds”.
With ASLWCWMYPNDISCFMES [ILA69] the binding was “binds”.
In the case of TADLCMFLWHQDCGRIF [ILA71], the binding is reported as “binds”.
LSLWCWLHDQAEFCVESN [ILA73] was tested, and the binding was “binds”.
WPLECYTDEELYDIWCLMDL [ILA74] was tested, and the binding was “binds”.
